PubChem BioAssay AID1259254 | NCATS | 2017
Screen: 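Gene knock-downs that lead to re-replication, shown by excess G2 DNA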 (primary screen). Cell system: human HCT116 colorectal cancer cells. Knock-down reagent: single siRNA against human genes. Time to read-out: 3 days. Read-out: 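Imaged Hoechst DNA stain sorts each cell into a cycle phase by DNA amount; per plate, G2 fraction set to 0% for non-targeting and 100% for GMNN siRNA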. Reading the numbers: G2 robust z-score: higher = more G2 cells, more excess DNA replication. Rule for the call: 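Active siRNAs have a G2 robust z of 5 or more median absolute deviations over the median, which in these data means about 38% or higher of GMNN control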.
In all, the deposit lists about 59,000 reagents; shown is an unselected part. Of all reagents, about 1,550 (2.6%) got an active call. 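G2 share is only a proxy for re-replication; each gene was hit by three separate siRNAs, and active genes were retested.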 Reagents against one gene are numbered here. Not all columns of the deposit are shown. Not stated in the record: the amount of reagent.

MAP4K3-DT (MAP4K3 divergent transcript) #1
- G2 robust z-score: -0.499
- Outcome: inactive

MAP4K3-DT (MAP4K3 divergent transcript) #2
- G2 robust z-score: 1.14
- Outcome: inactive

MAP4K3-DT (MAP4K3 divergent transcript) #3
- G2 robust z-score: 2.54
- Outcome: inactive

ZNF222 (zinc finger protein 222) #1
- G2 robust z-score: -1.46
- Outcome: inactive

ZNF222 (zinc finger protein 222) #2
- G2 robust z-score: -0.884
- Outcome: inactive

ZNF222 (zinc finger protein 222) #3
- G2 robust z-score: 0.592
- Outcome: inactive

TBX1 (T-box transcription factor 1) #1
- G2 robust z-score: -0.692
- Outcome: inactive

TBX1 (T-box transcription factor 1) #2
- G2 robust z-score: 0.037
- Outcome: inactive

TBX1 (T-box transcription factor 1) #3
- G2 robust z-score: 2.87
- Outcome: inactive

Continued; the last 3 above are carried over.
TBX1 (T-box transcription factor 1) #1
- G2 robust z-score: -0.692
- Outcome: inactive

TBX1 (T-box transcription factor 1) #2
- G2 robust z-score: 0.037
- Outcome: inactive

TBX1 (T-box transcription factor 1) #3
- G2 robust z-score: 2.87
- Outcome: inactive

ZNF611 (zinc finger protein 611) #1
- G2 robust z-score: -0.0175
- Outcome: inactive

ZNF611 (zinc finger protein 611) #2
- G2 robust z-score: 0.00724
- Outcome: inactive

ZNF611 (zinc finger protein 611) #3
- G2 robust z-score: 2.32
- Outcome: inactive

TTC12 (tetratricopeptide repeat domain 12) #1
- G2 robust z-score: -0.432
- Outcome: inactive

TTC12 (tetratricopeptide repeat domain 12) #2
- G2 robust z-score: -0.541
- Outcome: inactive

TTC12 (tetratricopeptide repeat domain 12) #3
- G2 robust z-score: -0.606
- Outcome: inactive

NSF (N-ethylmaleimide sensitive factor, vesicle fusing ATPase) #1
- G2 robust z-score: -0.0884
- Outcome: inactive

NSF (N-ethylmaleimide sensitive factor, vesicle fusing ATPase) #2
- G2 robust z-score: -0.211
- Outcome: inactive

NSF (N-ethylmaleimide sensitive factor, vesicle fusing ATPase) #3
- G2 robust z-score: -0.908
- Outcome: inactive

TMEM168 (transmembrane protein 168) #1
- G2 robust z-score: -0.213
- Outcome: inactive

TMEM168 (transmembrane protein 168) #2
- G2 robust z-score: -0.594
- Outcome: inactive

TMEM168 (transmembrane protein 168) #3
- G2 robust z-score: 1.78
- Outcome: inactive

YIPF1 (Yip1 domain family member 1) #1
- G2 robust z-score: 0.476
- Outcome: inactive

YIPF1 (Yip1 domain family member 1) #2
- G2 robust z-score: 2.15
- Outcome: inactive

YIPF1 (Yip1 domain family member 1) #3
- G2 robust z-score: 0.805
- Outcome: inactive
